Data from the supplement of paper PMC10849652.
Some of the results follow. Residues, ends and D or L forms follow the SMILES beside them. *: point of attachment. Cbz = O=C(OCc1ccccc1)*

Sequences of proteins named here, by UniProt entry; tags and fusion partners are left off. A change or cut given only in a name is not applied to a line headed by its entry.
UniProt Q6NTF9: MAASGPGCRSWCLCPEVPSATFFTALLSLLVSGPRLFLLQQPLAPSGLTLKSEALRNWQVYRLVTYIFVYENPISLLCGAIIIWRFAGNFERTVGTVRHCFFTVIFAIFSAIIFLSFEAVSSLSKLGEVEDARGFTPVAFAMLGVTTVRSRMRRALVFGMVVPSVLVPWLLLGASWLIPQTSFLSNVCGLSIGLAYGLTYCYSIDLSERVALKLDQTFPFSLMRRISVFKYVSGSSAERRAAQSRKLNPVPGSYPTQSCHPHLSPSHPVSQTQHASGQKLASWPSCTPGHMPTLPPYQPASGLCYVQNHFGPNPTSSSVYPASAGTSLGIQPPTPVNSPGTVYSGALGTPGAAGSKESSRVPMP
UniProt O14730: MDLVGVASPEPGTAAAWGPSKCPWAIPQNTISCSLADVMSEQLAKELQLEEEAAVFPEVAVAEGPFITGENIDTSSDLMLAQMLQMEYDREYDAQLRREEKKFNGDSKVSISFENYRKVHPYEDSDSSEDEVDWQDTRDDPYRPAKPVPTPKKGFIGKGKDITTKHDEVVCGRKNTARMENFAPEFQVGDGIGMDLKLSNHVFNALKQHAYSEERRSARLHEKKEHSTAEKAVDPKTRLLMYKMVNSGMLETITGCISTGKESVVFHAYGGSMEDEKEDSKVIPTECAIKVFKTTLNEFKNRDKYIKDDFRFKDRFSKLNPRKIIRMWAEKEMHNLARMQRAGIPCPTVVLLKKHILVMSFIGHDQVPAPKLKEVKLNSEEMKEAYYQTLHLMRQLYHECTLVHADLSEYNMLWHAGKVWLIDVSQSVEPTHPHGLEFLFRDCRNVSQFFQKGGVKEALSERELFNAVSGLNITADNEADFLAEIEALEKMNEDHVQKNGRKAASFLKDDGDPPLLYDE
UniProt Q4ADV7: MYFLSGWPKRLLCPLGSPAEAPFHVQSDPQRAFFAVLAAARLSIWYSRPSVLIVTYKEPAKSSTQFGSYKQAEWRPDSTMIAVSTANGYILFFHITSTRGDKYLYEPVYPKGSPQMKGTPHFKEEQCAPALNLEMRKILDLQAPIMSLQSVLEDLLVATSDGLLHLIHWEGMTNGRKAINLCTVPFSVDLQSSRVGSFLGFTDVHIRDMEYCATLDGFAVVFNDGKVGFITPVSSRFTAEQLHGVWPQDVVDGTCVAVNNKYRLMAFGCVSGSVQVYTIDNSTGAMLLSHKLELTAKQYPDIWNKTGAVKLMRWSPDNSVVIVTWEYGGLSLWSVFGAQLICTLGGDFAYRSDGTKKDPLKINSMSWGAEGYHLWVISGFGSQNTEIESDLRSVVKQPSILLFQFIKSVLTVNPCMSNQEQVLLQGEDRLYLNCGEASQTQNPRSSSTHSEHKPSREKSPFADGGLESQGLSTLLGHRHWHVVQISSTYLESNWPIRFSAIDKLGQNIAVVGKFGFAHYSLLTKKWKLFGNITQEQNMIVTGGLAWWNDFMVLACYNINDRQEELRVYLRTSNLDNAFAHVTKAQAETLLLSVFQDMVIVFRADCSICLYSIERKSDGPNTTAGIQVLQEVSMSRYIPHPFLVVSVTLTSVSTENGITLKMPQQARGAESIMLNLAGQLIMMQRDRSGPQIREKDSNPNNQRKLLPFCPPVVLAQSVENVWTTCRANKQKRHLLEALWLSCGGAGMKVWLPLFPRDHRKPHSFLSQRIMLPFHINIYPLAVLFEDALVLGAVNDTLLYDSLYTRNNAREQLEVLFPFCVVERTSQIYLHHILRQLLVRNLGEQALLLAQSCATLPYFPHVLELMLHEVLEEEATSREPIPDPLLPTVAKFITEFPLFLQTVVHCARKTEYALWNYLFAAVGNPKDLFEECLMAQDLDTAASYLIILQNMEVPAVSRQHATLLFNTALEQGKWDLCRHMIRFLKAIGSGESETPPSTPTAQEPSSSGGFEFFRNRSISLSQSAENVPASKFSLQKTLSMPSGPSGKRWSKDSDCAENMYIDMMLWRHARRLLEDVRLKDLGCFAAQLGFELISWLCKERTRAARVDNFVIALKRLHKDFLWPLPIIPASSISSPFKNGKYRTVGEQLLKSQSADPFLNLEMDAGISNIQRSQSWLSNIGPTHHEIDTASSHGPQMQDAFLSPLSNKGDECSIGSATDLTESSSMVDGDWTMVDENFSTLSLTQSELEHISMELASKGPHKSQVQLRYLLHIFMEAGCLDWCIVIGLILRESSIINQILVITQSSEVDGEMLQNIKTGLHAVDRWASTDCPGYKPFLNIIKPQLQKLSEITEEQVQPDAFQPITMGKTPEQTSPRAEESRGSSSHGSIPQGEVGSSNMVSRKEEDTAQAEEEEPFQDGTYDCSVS
UniProt Q5VTB9: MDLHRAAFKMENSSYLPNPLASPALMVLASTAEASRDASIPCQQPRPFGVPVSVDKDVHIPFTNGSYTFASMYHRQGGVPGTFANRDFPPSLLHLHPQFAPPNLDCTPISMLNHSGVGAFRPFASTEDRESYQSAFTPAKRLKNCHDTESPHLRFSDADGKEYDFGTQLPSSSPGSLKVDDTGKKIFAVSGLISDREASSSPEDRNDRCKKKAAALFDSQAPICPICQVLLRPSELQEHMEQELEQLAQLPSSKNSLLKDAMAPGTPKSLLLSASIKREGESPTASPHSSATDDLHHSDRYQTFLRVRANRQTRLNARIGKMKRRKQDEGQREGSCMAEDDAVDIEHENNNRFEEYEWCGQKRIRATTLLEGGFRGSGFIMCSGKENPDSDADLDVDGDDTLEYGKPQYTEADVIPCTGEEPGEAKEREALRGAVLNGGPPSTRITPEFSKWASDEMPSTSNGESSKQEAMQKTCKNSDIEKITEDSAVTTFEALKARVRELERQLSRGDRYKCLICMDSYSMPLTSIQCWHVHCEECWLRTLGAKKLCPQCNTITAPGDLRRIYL
UniProt Q6NUM9: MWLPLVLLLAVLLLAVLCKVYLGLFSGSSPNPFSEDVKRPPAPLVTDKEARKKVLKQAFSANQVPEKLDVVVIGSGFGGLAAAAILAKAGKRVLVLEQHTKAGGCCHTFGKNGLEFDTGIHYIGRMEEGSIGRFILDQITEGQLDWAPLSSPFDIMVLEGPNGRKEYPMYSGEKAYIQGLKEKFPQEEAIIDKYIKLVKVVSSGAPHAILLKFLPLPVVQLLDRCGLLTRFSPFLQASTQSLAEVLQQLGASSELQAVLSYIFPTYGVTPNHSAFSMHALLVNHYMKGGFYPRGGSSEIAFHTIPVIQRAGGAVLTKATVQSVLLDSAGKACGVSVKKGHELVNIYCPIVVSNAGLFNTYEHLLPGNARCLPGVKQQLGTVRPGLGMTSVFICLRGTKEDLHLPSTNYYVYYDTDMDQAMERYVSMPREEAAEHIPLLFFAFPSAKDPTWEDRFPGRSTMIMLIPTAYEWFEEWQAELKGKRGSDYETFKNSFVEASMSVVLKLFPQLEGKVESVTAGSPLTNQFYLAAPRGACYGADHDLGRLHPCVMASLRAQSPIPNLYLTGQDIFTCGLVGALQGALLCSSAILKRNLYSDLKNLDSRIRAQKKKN
UniProt Q9H4X1: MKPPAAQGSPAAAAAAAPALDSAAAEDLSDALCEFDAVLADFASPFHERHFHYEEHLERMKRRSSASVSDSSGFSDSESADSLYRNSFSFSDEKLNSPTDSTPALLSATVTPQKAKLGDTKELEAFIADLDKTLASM
UniProt Q5RL73: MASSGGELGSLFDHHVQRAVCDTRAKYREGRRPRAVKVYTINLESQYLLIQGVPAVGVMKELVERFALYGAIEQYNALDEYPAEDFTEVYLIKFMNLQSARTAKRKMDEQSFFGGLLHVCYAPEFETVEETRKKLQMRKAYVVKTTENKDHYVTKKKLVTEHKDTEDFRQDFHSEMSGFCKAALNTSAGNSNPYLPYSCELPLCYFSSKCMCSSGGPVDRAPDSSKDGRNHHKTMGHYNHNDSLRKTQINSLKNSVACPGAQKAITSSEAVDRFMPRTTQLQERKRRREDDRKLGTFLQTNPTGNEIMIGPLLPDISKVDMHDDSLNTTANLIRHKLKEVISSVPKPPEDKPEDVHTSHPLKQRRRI
UniProt Q9P260: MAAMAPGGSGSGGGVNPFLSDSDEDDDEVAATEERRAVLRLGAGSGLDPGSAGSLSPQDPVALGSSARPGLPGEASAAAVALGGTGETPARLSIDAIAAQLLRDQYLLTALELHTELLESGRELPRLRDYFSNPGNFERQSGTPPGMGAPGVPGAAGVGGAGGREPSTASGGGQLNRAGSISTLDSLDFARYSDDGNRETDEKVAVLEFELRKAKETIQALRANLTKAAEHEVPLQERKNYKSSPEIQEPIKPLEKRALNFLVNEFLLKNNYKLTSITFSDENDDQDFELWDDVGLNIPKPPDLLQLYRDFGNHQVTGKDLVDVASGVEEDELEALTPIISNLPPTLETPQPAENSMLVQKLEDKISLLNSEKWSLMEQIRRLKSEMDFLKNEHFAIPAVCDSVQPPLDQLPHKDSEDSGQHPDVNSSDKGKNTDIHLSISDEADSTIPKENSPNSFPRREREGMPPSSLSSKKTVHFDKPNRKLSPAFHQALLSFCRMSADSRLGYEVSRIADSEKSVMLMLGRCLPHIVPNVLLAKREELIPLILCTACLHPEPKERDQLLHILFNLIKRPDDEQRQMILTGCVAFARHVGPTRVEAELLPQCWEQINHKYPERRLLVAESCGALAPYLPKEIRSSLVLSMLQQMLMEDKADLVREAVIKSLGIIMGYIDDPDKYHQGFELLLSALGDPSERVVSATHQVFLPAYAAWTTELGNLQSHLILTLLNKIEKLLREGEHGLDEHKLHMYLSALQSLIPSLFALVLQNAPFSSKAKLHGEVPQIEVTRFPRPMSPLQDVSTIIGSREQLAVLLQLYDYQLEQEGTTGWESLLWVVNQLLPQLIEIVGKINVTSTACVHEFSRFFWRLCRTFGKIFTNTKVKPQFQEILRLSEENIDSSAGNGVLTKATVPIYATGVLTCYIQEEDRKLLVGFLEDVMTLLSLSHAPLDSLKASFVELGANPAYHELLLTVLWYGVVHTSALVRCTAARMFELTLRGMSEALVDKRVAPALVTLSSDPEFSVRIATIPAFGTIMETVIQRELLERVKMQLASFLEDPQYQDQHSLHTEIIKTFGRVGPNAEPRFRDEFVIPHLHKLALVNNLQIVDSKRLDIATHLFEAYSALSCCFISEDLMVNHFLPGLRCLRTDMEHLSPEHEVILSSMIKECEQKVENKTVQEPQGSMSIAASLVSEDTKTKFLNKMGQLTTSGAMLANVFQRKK
UniProt P82980: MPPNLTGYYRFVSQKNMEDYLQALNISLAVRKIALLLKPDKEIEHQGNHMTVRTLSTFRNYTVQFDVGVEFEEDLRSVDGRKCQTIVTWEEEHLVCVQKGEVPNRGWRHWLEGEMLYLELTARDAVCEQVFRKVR
UniProt Q86VR2, whole entry, looked up: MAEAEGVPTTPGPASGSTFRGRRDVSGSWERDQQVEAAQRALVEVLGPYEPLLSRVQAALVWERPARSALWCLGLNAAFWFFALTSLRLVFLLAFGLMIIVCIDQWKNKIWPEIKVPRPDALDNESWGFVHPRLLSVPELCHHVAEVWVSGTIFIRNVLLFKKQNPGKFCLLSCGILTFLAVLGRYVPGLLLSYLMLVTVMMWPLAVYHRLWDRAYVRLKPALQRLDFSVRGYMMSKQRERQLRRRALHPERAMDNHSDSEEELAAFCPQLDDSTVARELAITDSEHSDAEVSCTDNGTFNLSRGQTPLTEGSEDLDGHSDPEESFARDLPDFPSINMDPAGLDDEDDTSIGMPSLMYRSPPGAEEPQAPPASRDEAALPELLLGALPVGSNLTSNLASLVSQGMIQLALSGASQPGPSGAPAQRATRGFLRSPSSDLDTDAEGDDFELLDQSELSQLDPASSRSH
UniProt P46063: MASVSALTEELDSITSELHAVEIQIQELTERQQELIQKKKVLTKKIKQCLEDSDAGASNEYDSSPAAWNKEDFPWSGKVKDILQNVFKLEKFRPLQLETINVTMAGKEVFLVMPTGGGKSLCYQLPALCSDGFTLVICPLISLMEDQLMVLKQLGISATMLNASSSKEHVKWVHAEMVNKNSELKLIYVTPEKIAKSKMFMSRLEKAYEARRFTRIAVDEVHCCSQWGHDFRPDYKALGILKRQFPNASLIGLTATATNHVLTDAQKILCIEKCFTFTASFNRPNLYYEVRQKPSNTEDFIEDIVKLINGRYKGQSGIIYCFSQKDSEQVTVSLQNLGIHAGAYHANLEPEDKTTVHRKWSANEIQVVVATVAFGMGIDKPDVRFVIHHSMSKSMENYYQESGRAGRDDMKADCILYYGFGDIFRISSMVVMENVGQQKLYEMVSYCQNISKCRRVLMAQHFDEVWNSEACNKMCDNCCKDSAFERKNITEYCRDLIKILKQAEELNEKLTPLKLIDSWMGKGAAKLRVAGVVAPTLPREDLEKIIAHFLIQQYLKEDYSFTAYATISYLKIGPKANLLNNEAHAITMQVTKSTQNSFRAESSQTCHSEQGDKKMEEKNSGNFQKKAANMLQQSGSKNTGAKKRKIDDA

Experiments:
Experiment in all cases: log2 fold change, soluble protein after heating vs DMSO (PISA); higher = thermal stabilisation; K562 cells, 10 uM, 30 min; active = over 0.2 and 3.5 SD of the protein, either way, in both replicates (recomputed)
[1] = compound: C#Cc1cccc(Nc2ncnc3cc(OCCOC)c(OCCOC)cc23)c1 [erlotinib]
Outline: (§1)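 For each measurement, 10 μM compound was applied for 30 min to K562 cells at 2×10^6 cells/mL. Aliquots were heated for 3 min across 48°C-58°C, pooled, and extracted in PBS with 0.5% NP-40 at 4°C; the supernatant after 21,000xg for 90 min was soluble protein. This was quantified by TMTpro 16plex LC-MS/MS with channel sums equalised, and thermal stability was reported relative to control samples from duplicates, on a log2 fold-change scale.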

[2] = compound: C/C(=N\NC(=O)C1=CC(=CC=C1)S(=O)(=O)N2CCOCC2)/C3=C(C=CC(=C3)Cl)O
Outline: as §1

[3] = compound: C1=CC(=C(C=C1Cl)C2=NC3=NC=CN=C3C(=N2)NC4=CC=NC=C4)F
Outline: as §1

[4] = compound: C1=CC(=CC=C1C2=NC3=C(N2)C=C(C=C3)C(=O)N)OC4=CC=C(C=C4)Cl
Outline: as §1

[5] = compound: C1=CC2=C(C=CC(=C2)/C=C\3/C(=O)NC(=NCC4=CC=CS4)S3)N=C1
Outline: as §1

[6] = compound: C1=CC2=NC=CN=C2C=C1/C=C/3\C(=O)NC(=O)S3
Outline: as §1

[7] = compound: C1=CC=C2C(=C1)C3=NNC4=CC=CC(=C43)C2=O
Outline: as §1

[8] = compound: C1COCCN1CCN2C3=CC=CC=C3N=C2NC(=O)C4=CC(=CC=C4)[N+](=O)[O-] [IRAK-1-4 Inhibitor I]
Outline: as §1

[9] = compound: C=CC(=O)N1CCC[C@@H](n2nc(-c3ccc(Oc4ccccc4)cc3)c3c(N)ncnc32)C1 [ibrutinib]
Outline: as §1

[10] = compound: CC(=O)c1cnc2ccc(-c3cc(Cl)c(O)c(Cl)c3)nc2c1N[C@H]1CC[C@H](CN(C)C)CC1
Outline: as §1

[11] = compound: CC(C)(O)CC(=O)NCCn1ccc2ncnc(Nc3ccc(Oc4cccc(C(F)(F)F)c4)c(Cl)c3)c21
Outline: as §1

[12] = compound: CC(C)C1=C2N=C(C=C(N2N=C1)NCC3=CC=CC=C3)NCCCCCCN
Outline: as §1

[13] = compound: CC(C)N(C[C@H]1O[C@@H](n2cnc3c(N)ncnc32)[C@H](O)[C@@H]1O)[C@H]1C[C@@H](CCc2nc3cc(C(C)(C)C)ccc3[nH]2)C1 [pinometostat]
Outline: as §1

[14] = compound: CC1=C(C(CC(=O)N1)C2=CC=C(C=C2)C(F)(F)F)C(=O)NC3=C(C=C4C(=C3)C=NN4)F
Outline: as §1

[15] = compound: C1=CC=C(C=C1)C2=NC(=C(N2)C3=CC=NC=C3)C4=CC(=C(C=C4)Cl)O
Outline: as §1

[16] = compound: C1CCN(C1)C(=O)NC2=CC=CC(=C2)NC3=NC=C(C(=N3)NCCC4=CN=CN4)Br
Outline: as §1

[17] = compound: C1CN(CCC1(CC2=CC=C(C=C2)Cl)N)C3=NC=NC4=C3C=CN4
Outline: as §1

[18] = compound: CC(C)(C)Cn1c(N)nc2ccc(-c3[nH]c(C(C)(C)C)nc3-c3ccc(F)cc3)nc21 [ralimetinib]
Outline: as §1

[19] = compound: CC(C)C[C@@H](C=O)NC(=O)[C@H](CC(C)C)NC(=O)[C@H](CC(C)C)NC(=O)OCc1ccccc1
Outline: as §1

[20] = compound: CC1=C(C2=C(C=C1)C(=O)C3=CC=CC=C3N2CCCN)C
Outline: as §1

Measured: log2 fold change

RHBDD2 isoform 2 (UniProt Q6NTF9)
inactive: [1] 0.053 | [2] -0.023 | [3] -0.062 | [4] -0.05 | [5] 0.058 | [6] 0.055 | [7] 0 | [8] 0.007 | [9] -0.062 | [10] 0.006 | [11] -0.354 | [12] -0.113 | [13] -0.037 | [14] -0.16

RIOK3 (UniProt O14730)
active: [20] -0.231
inactive: [1] 0.037 | [2] 0.014 | [3] 0.062 | [4] 0.003 | [5] -0.019 | [6] 0.048 | [15] -0.033 | [7] 0.02 | [16] 0.024 | [17] -0.025 | [8] 0.087 | [9] 0.002 | [10] 0.024 | [18] -0.009 | [11] -0.083 | [12] -0.009 | [19] 0.021 | [13] -0.011

RDH11 (UniProt Q8TC12)
inactive: [1] -0.007 | [2] -0.03 | [3] 0.102 | [4] 0.068 | [5] 0.084 | [6] -0.1 | [15] 0.029 | [7] 0.04 | [16] -0.044 | [17] -0.043 | [8] 0.032 | [9] 0.067 | [10] -0.145 | [18] 0.059 | [11] -0.126 | [19] 0.117 | [13] 0.013 | [20] 0.103
active: [12] -0.74

RIC1 (UniProt Q4ADV7)
inactive: [1] 0.065 | [2] -0.172 | [3] -0.086 | [4] 0.056 | [5] 0.154 | [6] -0.029 | [15] -0.019 | [7] 0.22 | [8] -0.086 | [9] -0.138 | [10] 0.022 | [18] 0.009 | [11] -0.205 | [12] -0.075 | [19] -0.051 | [13] 0.059 | [14] -0.171

RBM4 (UniProt Q9BWF3)
inactive: [1] 0.02 | [2] 0 | [3] -0.102 | [4] 0.011 | [5] -0.012 | [6] 0.054 | [15] -0.041 | [7] -0.035 | [16] 0.012 | [17] -0.009 | [8] -0.038 | [9] -0.023 | [10] -0.083 | [18] 0.099 | [11] 0.019 | [12] -0.136 | [19] 0.074 | [13] 0.076 | [20] -0.027

RBSN (UniProt Q9H1K0)
inactive: [1] 0.08 | [2] -0.087 | [4] 0.025 | [5] 0.369 | [6] 0.026 | [15] 0.089 | [7] 0.243 | [16] 0.04 | [17] -0.01 | [8] 0.027 | [9] -0.334 | [10] 0.15 | [18] -0.006 | [12] -0.249 | [19] -0.065 | [13] 0.073 | [14] -0.08 | [20] 0.016

RNF220 (UniProt Q5VTB9)
inactive: [1] 0.017 | [2] 0.034 | [3] 0.017 | [4] 0.011 | [5] 0.034 | [6] 0.03 | [15] 0.026 | [7] 0.011 | [16] -0.008 | [17] -0.022 | [8] 0.017 | [9] -0.032 | [10] -0.02 | [18] -0.045 | [11] 0.021 | [12] -0.011 | [19] -0.046 | [13] -0.076 | [20] 0.004

RETSAT (UniProt Q6NUM9)
inactive: [1] 0.044 | [2] -0.149 | [3] 0.132 | [5] 0.052 | [6] 0.002 | [15] 0.056 | [7] 0.144 | [16] -0.126 | [17] 0.194 | [8] -0.09 | [9] 0.042 | [10] 0.01 | [18] 0.012 | [11] 0.178 | [12] -0.048 | [19] -0.007 | [13] -0.012 | [20] 0.059
active: [4] 0.502

RNF185 (UniProt Q96GF1)
inactive: [1] -0.054 | [2] -0.006 | [4] 0.009 | [5] 0.136 | [6] 0.026 | [15] 0.133 | [7] -0.007 | [16] 0.457 | [17] -0.031 | [9] 0.045 | [10] 0.087 | [18] -0.04 | [12] -0.011 | [19] -0.003 | [20] 0.276

RETREG2 (UniProt Q8NC44)
inactive: [1] -0.041 | [2] 0.073 | [4] 0.014 | [5] -0.07 | [6] 0.004 | [15] -0.147 | [7] -0.01 | [16] 0.047 | [17] -0.102 | [8] 0.063 | [9] 0.069 | [10] 0.048 | [18] 0.002 | [12] -0.096 | [19] -0.005 | [13] 0.065 | [14] -0.029 | [20] 0.04

RHOA (UniProt P61586)
inactive: [1] 0.028 | [2] -0.029 | [3] 0.012 | [4] -0.052 | [5] -0.094 | [6] -0.161 | [15] 0.114 | [7] 0.018 | [16] -0.05 | [17] 0.01 | [8] 0.108 | [9] -0.015 | [10] 0.047 | [18] 0.251 | [11] -0.034 | [12] 0.063 | [19] -0.07 | [13] -0.023 | [20] -0.007

RGCC (UniProt Q9H4X1)
inactive: [1] 0.295 | [2] 0.048 | [4] 0.108 | [5] 0.184 | [6] -0.052 | [7] -0.125 | [9] -0.056 | [10] -0.156 | [12] -0.056 | [14] -0.346

RBM48 isoform 2 (UniProt Q5RL73)
inactive: [1] -0.048 | [2] 0.017 | [3] -0.065 | [4] -0.026 | [5] 0.053 | [6] 0.055 | [15] -0.144 | [7] 0.042 | [16] 0.118 | [17] -0.115 | [8] 0.15 | [9] 0.051 | [10] -0.018 | [18] 0.004 | [11] 0.004 | [12] 0.156 | [19] -0.301 | [13] 0.068 | [20] -0.151

RELCH isoform 2 (UniProt Q9P260)
inactive: [1] 0.068 | [2] 0.111 | [3] -0.012 | [4] -0.003 | [5] 0.116 | [6] -0.004 | [15] 0.101 | [7] 0.04 | [16] -0.105 | [17] -0.026 | [9] 0.002 | [10] -0.036 | [18] -0.347 | [11] -0.122 | [12] -0.099 | [19] 0.065 | [14] 0.001 | [20] 0.101

RBP5 (UniProt P82980)
inactive: [1] 0.027 | [2] 0.058 | [3] 0.117 | [4] -0.036 | [5] 0.074 | [6] 0 | [7] -0.043 | [16] 0.07 | [17] 0.19 | [8] -0.105 | [9] 0.155 | [10] -0.008 | [11] -0.032 | [12] -0.019 | [13] -0.062 | [14] 0.028 | [20] -0.094

RETREG3 (UniProt Q86VR2)
inactive: [1] 0.004 | [2] 0.072 | [3] 0.037 | [4] 0.031 | [5] -0.053 | [6] 0.07 | [15] 0.062 | [7] -0.087 | [16] -0.029 | [17] 0.032 | [8] 0.117 | [9] -0.002 | [10] -0.01 | [18] -0.036 | [11] -0.04 | [12] -0.167 | [19] 0.007 | [13] 0.035 | [20] -0.016

RECQL (UniProt P46063)
inactive: [1] -0.019 | [2] 0.072 | [3] 0.066 | [4] -0.005 | [5] 0.046 | [6] 0.004 | [15] -0.004 | [7] -0.003 | [16] -0.062 | [17] 0.01 | [8] 0.013 | [9] 0.002 | [10] -0.023 | [18] -0.024 | [11] -0.039 | [12] -0.033 | [19] -0.02 | [13] -0.013
active: [20] 0.266

2 neighbouring records already listed, quoted:
RIC1 (UniProt Q4ADV7)
inactive: [1] 0.065 | [2] -0.172 | [3] -0.086 | [4] 0.056 | [5] 0.154 | [6] -0.029 | [15] -0.019 | [7] 0.22 | [8] -0.086 | [9] -0.138 | [10] 0.022 | [18] 0.009 | [11] -0.205 | [12] -0.075 | [19] -0.051 | [13] 0.059 | [14] -0.171

RBM4 (UniProt Q9BWF3)
inactive: [1] 0.02 | [2] 0 | [3] -0.102 | [4] 0.011 | [5] -0.012 | [6] 0.054 | [15] -0.041 | [7] -0.035 | [16] 0.012 | [17] -0.009 | [8] -0.038 | [9] -0.023 | [10] -0.083 | [18] 0.099 | [11] 0.019 | [12] -0.136 | [19] 0.074 | [13] 0.076 | [20] -0.027
